# Test results reported in the supplement of paper PMC4604168 (melanoma cell lines).
# The list shows a part of the results. Repeats are few or missing, and single values can be far off.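 Cells were imaged in 1,536-well plates, and nuclei stained with an antibody against cleaved PARP were counted against all DNA-stained nuclei to give the apoptosis fraction. Screening doses were chosen to leave most cells alive, and resting and induced cleaved-PARP levels differ strongly between cell lines.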
# What was measured:
# Assay in all cases: cleaved PARP positive nuclei fraction relative to DMSO control; melanoma cells; higher = more apoptosis
# Settings in all cases: library dose: low library concentration; 72 h
# 501Mel = system: 501Mel
# A101D = system: A101D
# A2058 = system: A2058
# A375 = system: A375
# C32 = system: C32
# CBRC008 = system: CBRC008 (line from a melanoma biopsy)
# CBRC014 = system: CBRC014 (line from a melanoma biopsy)
# CBRC016 = system: CBRC016 (line from a melanoma biopsy)
# CBRC017 = system: CBRC017 (line from a melanoma biopsy)
# CBRC013 = system: CBRC013 (line from a melanoma biopsy)
SMILES,cleaved PARP positive nuclei fraction (501Mel) [%],cleaved PARP positive nuclei fraction (A101D) [%],cleaved PARP positive nuclei fraction (A2058) [%],cleaved PARP positive nuclei fraction (A375) [%],cleaved PARP positive nuclei fraction (C32) [%],cleaved PARP positive nuclei fraction (CBRC008) [%],cleaved PARP positive nuclei fraction (CBRC014) [%],cleaved PARP positive nuclei fraction (CBRC016) [%],cleaved PARP positive nuclei fraction (CBRC017) [%],cleaved PARP positive nuclei fraction (CBRC013) [%]
"CCCCCCCCCCCCCCCCCCOP(=O)([O-])OC1CC[N+](C)(C)CC1 [Perifosine] + Cn1nnc2c(C(N)=O)ncn2c1=O [temozolomide] (first compound 0.4 µM, partner dose 2 µM)",69.1,43.9,98.3,110,76.4,132,114,84.3,111,
"O=C(Nc1cc(C(F)(F)F)cc(C(F)(F)F)c1)c1cc(Cl)ccc1O + C=C(c1ccc(C(=O)O)cc1)c1cc2c(cc1C)C(C)(C)CCC2(C)C [Bexarotene] (first compound 0.016 µM, partner dose 2 µM)",141,86.6,138,56.5,78.7,85.8,97.6,160,144,
"COc1cc([C@@H]2c3cc4c(cc3[C@@H](O[C@@H]3O[C@@H]5CO[C@@H](C)O[C@H]5[C@H](O)[C@H]3O)[C@H]3COC(=O)[C@H]23)OCO4)cc(OC)c1O [etoposide] + NC(=O)c1ccc(N(C(N)=O)c2c(F)cccc2F)nc1-c1ccc(F)cc1F [VX702] (first compound 0.02 µM, partner dose 0.4 µM)",129,41.3,124,101,72.9,40.5,91.2,109,82.6,
"O=c1[nH]nc(Sc2ncc([N+](=O)[O-])s2)n1-c1ccc2c(c1)OCCO2 + COc1ccc(Cl)c(Nc2nc3ccccc3nc2NS(=O)(=O)c2cccc(NC(=O)C(C)(C)N)c2)c1 [XL147] (first compound 0.2 µM, partner dose 0.8 µM)",144,75.7,102,119,250,287,108,288,137,
"CC[C@]1(O)C[C@H]2CN(CCc3c([nH]c4ccccc34)[C@@](C(=O)OC)(c3cc4c(cc3OC)N(C=O)[C@H]3[C@@](O)(C(=O)OC)[C@H](OC(C)=O)[C@]5(CC)C=CCN6CC[C@]43[C@@H]65)C2)C1 [vincristine] + O=C(O)c1ccc(-c2c[nH]c3ncc(-c4ccccc4)cc23)cc1C1CCCC1 [GSK650394] (first compound 0.0001 µM, partner dose 0.16 µM)",202,126,867,303,295,291,85.8,150,111,59
"Cc1cn(-c2cc(NC(=O)c3ccc(C)c(Nc4nccc(-c5cccnc5)n4)c3)cc(C(F)(F)F)c2)cn1 [nilotinib] + Clc1ccc(Nc2nnc(Cc3ccncc3)c3ccccc23)cc1 [vatalanib] (first compound 0.2 µM, partner dose 2 µM)",54.7,157,77.3,159,77.7,39.7,86.6,115,108,
"O=C(/C=C/c1cccnc1)NCCCCC1CCN(C(=O)c2ccccc2)CC1 + O=C(CCCCCCC(=O)Nc1ccccc1)NO [vorinostat] (first compound 0.01 µM, partner dose 0.08 µM)",89.8,196,57.7,80.7,143,1560,111,309,151,64.1
"CCCCCCCCCCCCCCCCCCOP(=O)([O-])OC1CC[N+](C)(C)CC1 [Perifosine] + COc1cc2c(Oc3ccc4[nH]c(C)cc4c3F)ncnc2cc1OCCCN1CCCC1 [cediranib] (first compound 0.4 µM, partner dose 0.4 µM)",126,45,76.3,243,47.5,42.6,86.8,168,88,112
"CC[C@]1(O)C[C@H]2CN(CCc3c([nH]c4ccccc34)[C@@](C(=O)OC)(c3cc4c(cc3OC)N(C=O)[C@H]3[C@@](O)(C(=O)OC)[C@H](OC(C)=O)[C@]5(CC)C=CCN6CC[C@]43[C@@H]65)C2)C1 [vincristine] + CCCS(=O)(=O)Nc1ccc(F)c(C(=O)c2c[nH]c3ncc(Cl)cc23)c1F [PLX4720] (first compound 0.0001 µM, partner dose 0.08 µM)",114,214,456,255,97.2,185,103,206,231,
"Cc1cc(Nc2cc(N3CCN(C)CC3)nc(Sc3ccc(NC(=O)C4CC4)cc3)n2)n[nH]1 [Tozasertib] + Nc1nc(F)nc2c1ncn2[C@@H]1O[C@H](CO)[C@@H](O)[C@@H]1O [fludarabine] (first compound 0.006 µM, partner dose 0.2 µM)",2820,44.1,197,3860,88.1,20.8,103,86.3,101,
"COc1cc([C@@H]2c3cc4c(cc3[C@@H](O[C@@H]3O[C@@H]5CO[C@@H](C)O[C@H]5[C@H](O)[C@H]3O)[C@H]3COC(=O)[C@H]23)OCO4)cc(OC)c1O [etoposide] + Cc1ccc(Nc2nccc(N(C)c3ccc4c(C)n(C)nc4c3)n2)cc1S(N)(=O)=O [Pazopanib] (first compound 0.02 µM, partner dose 0.4 µM)",161,130,169,134,68.7,106,117,79.2,142,
"O=C(/C=C/c1cccnc1)NCCCCC1CCN(C(=O)c2ccccc2)CC1 + COc1cc2c(Oc3ccc4[nH]c(C)cc4c3F)ncnc2cc1OCCCN1CCCC1 [cediranib] (first compound 0.01 µM, partner dose 0.4 µM)",91.4,86.2,85.7,123,95.5,4300,88.2,469,266,75.9
"CC[C@]1(O)C[C@H]2CN(CCc3c([nH]c4ccccc34)[C@@](C(=O)OC)(c3cc4c(cc3OC)N(C=O)[C@H]3[C@@](O)(C(=O)OC)[C@H](OC(C)=O)[C@]5(CC)C=CCN6CC[C@]43[C@@H]65)C2)C1 [vincristine] + CCCCCCCCCCCCCCCCCCOP(=O)([O-])OC1CC[N+](C)(C)CC1 [Perifosine] (first compound 0.0001 µM, partner dose 0.4 µM)",83.5,47.3,318,123,87,195,102,201,114,
"CC[C@]1(O)C[C@H]2CN(CCc3c([nH]c4ccccc34)[C@@](C(=O)OC)(c3cc4c(cc3OC)N(C=O)[C@H]3[C@@](O)(C(=O)OC)[C@H](OC(C)=O)[C@]5(CC)C=CCN6CC[C@]43[C@@H]65)C2)C1 [vincristine] + NC(=O)Nc1cc(-c2cccc(F)c2)sc1C(=O)N[C@H]1CCCNC1 [AZD7762] (first compound 0.0001 µM, partner dose 0.02 µM)",47.5,122,1200,1030,320,182,111,171,121,138
"CCCCCCCCCCCCCCCCCCOP(=O)([O-])OC1CC[N+](C)(C)CC1 [Perifosine] + OCc1c[nH]c2ccccc12 [Indole-3-carbinol] (first compound 0.4 µM, partner dose 0.8 µM)",62.5,375,84.7,219,76.7,49.5,89.7,36,127,
"O=c1[nH]nc(Sc2ncc([N+](=O)[O-])s2)n1-c1ccc2c(c1)OCCO2 + CN(c1ncccc1CNc1nc(Nc2ccc3c(c2)CC(=O)N3)ncc1C(F)(F)F)S(C)(=O)=O [PF562271] (first compound 0.2 µM, partner dose 0.08 µM)",72,54.4,197,75.6,92.5,192,125,361,87.3,
"Cc1cn(-c2cc(NC(=O)c3ccc(C)c(Nc4nccc(-c5cccnc5)n4)c3)cc(C(F)(F)F)c2)cn1 [nilotinib] + CCCCCCCCc1ccc(CCC(N)(CO)CO)cc1 [fingolimod] (first compound 0.2 µM, partner dose 2 µM)",106,187,48.5,213,79,102,93.4,89.5,112,
"N#CC[C@H](C1CCCC1)n1cc(-c2ncnc3[nH]ccc23)cn1 [ruxolitinib] + Cn1cnc2c(F)c(Nc3ccc(Br)cc3Cl)c(C(=O)NOCCO)cc21 [selumetinib] (first compound 1 µM, partner dose 0.015 µM)",78,83.5,186,71.8,149,60.8,83.7,153,173,
"Cc1cn(-c2cc(NC(=O)c3ccc(C)c(Nc4nccc(-c5cccnc5)n4)c3)cc(C(F)(F)F)c2)cn1 [nilotinib] + C[C@]1(O)C[C@@H](c2nc(-c3ccc4ccc(-c5ccccc5)nc4c3)c3c(N)nccn32)C1 [OSI906] (first compound 0.2 µM, partner dose 0.4 µM)",102,343,116,567,177,344,92.2,80.9,215,
"Cc1ccc(Nc2nccc(N(C)c3ccc4c(C)n(C)nc4c3)n2)cc1S(N)(=O)=O [Pazopanib] + CCCS(=O)(=O)Nc1ccc(F)c(C(=O)c2c[nH]c3ncc(Cl)cc23)c1F [PLX4720] (first compound 0.4 µM, partner dose 0.08 µM)",118,170,97,60.3,90.1,74.6,114,68.2,114,
"O=c1[nH]nc(Sc2ncc([N+](=O)[O-])s2)n1-c1ccc2c(c1)OCCO2 + CC1(C)CCC(c2ccc(Cl)cc2)=C(CN2CCN(c3ccc(C(=O)NS(=O)(=O)c4ccc(N[C@H](CCN5CCOCC5)CSc5ccccc5)c(S(=O)(=O)C(F)(F)F)c4)cc3)CC2)C1 [ABT263] (first compound 0.2 µM, partner dose 0.4 µM)",71.2,264,183,162,456,385,377,370,320,

# Five entries from above in a different format:
SMILES | cleaved PARP positive nuclei fraction (501Mel) [%] | cleaved PARP positive nuclei fraction (A101D) [%] | cleaved PARP positive nuclei fraction (A2058) [%] | cleaved PARP positive nuclei fraction (A375) [%] | cleaved PARP positive nuclei fraction (C32) [%] | cleaved PARP positive nuclei fraction (CBRC008) [%] | cleaved PARP positive nuclei fraction (CBRC014) [%] | cleaved PARP positive nuclei fraction (CBRC016) [%] | cleaved PARP positive nuclei fraction (CBRC017) [%] | cleaved PARP positive nuclei fraction (CBRC013) [%]
O=C(Nc1cc(C(F)(F)F)cc(C(F)(F)F)c1)c1cc(Cl)ccc1O + C=C(c1ccc(C(=O)O)cc1)c1cc2c(cc1C)C(C)(C)CCC2(C)C [Bexarotene] (first compound 0.016 µM, partner dose 2 µM) | 141 | 86.6 | 138 | 56.5 | 78.7 | 85.8 | 97.6 | 160 | 144 | 
COc1cc([C@@H]2c3cc4c(cc3[C@@H](O[C@@H]3O[C@@H]5CO[C@@H](C)O[C@H]5[C@H](O)[C@H]3O)[C@H]3COC(=O)[C@H]23)OCO4)cc(OC)c1O [etoposide] + NC(=O)c1ccc(N(C(N)=O)c2c(F)cccc2F)nc1-c1ccc(F)cc1F [VX702] (first compound 0.02 µM, partner dose 0.4 µM) | 129 | 41.3 | 124 | 101 | 72.9 | 40.5 | 91.2 | 109 | 82.6 | 
O=c1[nH]nc(Sc2ncc([N+](=O)[O-])s2)n1-c1ccc2c(c1)OCCO2 + COc1ccc(Cl)c(Nc2nc3ccccc3nc2NS(=O)(=O)c2cccc(NC(=O)C(C)(C)N)c2)c1 [XL147] (first compound 0.2 µM, partner dose 0.8 µM) | 144 | 75.7 | 102 | 119 | 250 | 287 | 108 | 288 | 137 | 
CC[C@]1(O)C[C@H]2CN(CCc3c([nH]c4ccccc34)[C@@](C(=O)OC)(c3cc4c(cc3OC)N(C=O)[C@H]3[C@@](O)(C(=O)OC)[C@H](OC(C)=O)[C@]5(CC)C=CCN6CC[C@]43[C@@H]65)C2)C1 [vincristine] + O=C(O)c1ccc(-c2c[nH]c3ncc(-c4ccccc4)cc23)cc1C1CCCC1 [GSK650394] (first compound 0.0001 µM, partner dose 0.16 µM) | 202 | 126 | 867 | 303 | 295 | 291 | 85.8 | 150 | 111 | 59
Cc1cn(-c2cc(NC(=O)c3ccc(C)c(Nc4nccc(-c5cccnc5)n4)c3)cc(C(F)(F)F)c2)cn1 [nilotinib] + Clc1ccc(Nc2nnc(Cc3ccncc3)c3ccccc23)cc1 [vatalanib] (first compound 0.2 µM, partner dose 2 µM) | 54.7 | 157 | 77.3 | 159 | 77.7 | 39.7 | 86.6 | 115 | 108 | 
